The series is described as follows: physchem.

In brackets after ≈: the same amount, converted by molar mass.

The solubility is the concentration that dissolves in the medium under given conditions. Higher therefore signals much dissolved substance. Turning to `COC(=O)C1=C(C)NC(C)=C(C(=O)OC)C1c1ccccc1[N+](=O)[O-]` [Nifedipine, nifedipine], the solubility was 7.1 µg/mL (≈ 20.5 µM) (pH 2.2, aqueous buffer); 5.7 µg/mL (≈ 16.5 µM) (pH 2.88, aqueous buffer); 6.2 µg/mL (≈ 17.9 µM) (pH 3.28, aqueous buffer); 5.7 µg/mL (≈ 16.5 µM) (pH 3.9, aqueous buffer); 5.6 µg/mL (≈ 16.2 µM) (pH 4.24, aqueous buffer); 5.1 µg/mL (≈ 14.7 µM) (pH 4.45, aqueous buffer). Besides, the solubility is, setting by setting: (pH 4.84, aqueous buffer) 5.3 µg/mL (≈ 15.3 µM); (pH 5.22, aqueous buffer) 5.3 µg/mL (≈ 15.3 µM); (pH 5.4, aqueous buffer) 5.2 µg/mL (≈ 15 µM); (pH 5.83, aqueous buffer) 5.4 µg/mL (≈ 15.6 µM); (pH 6.52, aqueous buffer) 5.2 µg/mL (≈ 15 µM); (pH 7.53, aqueous buffer) 5.2 µg/mL (≈ 15 µM).

Source of the values: patent US12151028B2, “Drug delivery systems comprising solid solutions of weakly basic drugs” (Adare Pharmaceuticals, Inc., priority 2006, dated 2024).
